Measured values: the supplement of paper PMC10849652
Some of the results follow.

The chains behind the UniProt entries cited, without tags or fusion partners. Where a name states a change or a piece, a line headed by the entry shows the natural chain unless it says otherwise.
UniProt Q96BM9: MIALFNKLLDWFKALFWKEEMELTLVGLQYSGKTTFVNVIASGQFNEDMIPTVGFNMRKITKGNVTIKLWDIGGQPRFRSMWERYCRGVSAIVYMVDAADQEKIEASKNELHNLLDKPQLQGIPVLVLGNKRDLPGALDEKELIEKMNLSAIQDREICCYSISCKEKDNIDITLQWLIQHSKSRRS
UniProt Q6UXV4: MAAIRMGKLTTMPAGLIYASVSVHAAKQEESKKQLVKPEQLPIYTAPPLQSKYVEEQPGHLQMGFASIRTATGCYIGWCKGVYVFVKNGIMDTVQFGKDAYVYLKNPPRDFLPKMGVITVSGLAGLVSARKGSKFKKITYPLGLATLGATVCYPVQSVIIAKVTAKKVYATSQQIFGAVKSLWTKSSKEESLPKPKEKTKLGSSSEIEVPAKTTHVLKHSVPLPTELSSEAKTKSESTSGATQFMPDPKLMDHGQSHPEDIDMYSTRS
UniProt Q9UKG1: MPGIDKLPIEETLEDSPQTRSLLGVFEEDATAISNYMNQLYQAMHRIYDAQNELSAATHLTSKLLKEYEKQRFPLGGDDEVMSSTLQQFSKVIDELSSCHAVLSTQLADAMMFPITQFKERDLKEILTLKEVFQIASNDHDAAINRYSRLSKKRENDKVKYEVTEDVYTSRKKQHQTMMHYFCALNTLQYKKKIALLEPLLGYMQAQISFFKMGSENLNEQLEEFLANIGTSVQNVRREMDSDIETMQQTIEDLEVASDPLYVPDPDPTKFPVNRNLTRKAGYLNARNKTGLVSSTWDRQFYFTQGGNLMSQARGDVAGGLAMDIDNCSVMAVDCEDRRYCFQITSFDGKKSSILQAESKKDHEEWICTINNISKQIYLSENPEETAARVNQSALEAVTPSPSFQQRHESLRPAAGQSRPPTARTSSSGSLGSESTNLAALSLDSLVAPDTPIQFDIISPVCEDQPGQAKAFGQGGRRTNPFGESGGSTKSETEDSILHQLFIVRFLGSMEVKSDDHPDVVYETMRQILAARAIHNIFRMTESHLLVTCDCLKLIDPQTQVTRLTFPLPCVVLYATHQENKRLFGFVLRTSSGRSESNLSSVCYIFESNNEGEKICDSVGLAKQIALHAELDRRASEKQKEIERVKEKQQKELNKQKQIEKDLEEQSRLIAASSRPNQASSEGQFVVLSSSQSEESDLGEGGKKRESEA
UniProt Q15041, whole entry, looked up: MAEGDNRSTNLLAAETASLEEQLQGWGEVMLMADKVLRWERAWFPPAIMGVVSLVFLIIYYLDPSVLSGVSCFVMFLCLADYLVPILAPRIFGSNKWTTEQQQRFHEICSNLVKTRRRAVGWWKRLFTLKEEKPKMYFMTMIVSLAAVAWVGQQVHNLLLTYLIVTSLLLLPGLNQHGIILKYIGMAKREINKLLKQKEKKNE
UniProt Q8TDY4: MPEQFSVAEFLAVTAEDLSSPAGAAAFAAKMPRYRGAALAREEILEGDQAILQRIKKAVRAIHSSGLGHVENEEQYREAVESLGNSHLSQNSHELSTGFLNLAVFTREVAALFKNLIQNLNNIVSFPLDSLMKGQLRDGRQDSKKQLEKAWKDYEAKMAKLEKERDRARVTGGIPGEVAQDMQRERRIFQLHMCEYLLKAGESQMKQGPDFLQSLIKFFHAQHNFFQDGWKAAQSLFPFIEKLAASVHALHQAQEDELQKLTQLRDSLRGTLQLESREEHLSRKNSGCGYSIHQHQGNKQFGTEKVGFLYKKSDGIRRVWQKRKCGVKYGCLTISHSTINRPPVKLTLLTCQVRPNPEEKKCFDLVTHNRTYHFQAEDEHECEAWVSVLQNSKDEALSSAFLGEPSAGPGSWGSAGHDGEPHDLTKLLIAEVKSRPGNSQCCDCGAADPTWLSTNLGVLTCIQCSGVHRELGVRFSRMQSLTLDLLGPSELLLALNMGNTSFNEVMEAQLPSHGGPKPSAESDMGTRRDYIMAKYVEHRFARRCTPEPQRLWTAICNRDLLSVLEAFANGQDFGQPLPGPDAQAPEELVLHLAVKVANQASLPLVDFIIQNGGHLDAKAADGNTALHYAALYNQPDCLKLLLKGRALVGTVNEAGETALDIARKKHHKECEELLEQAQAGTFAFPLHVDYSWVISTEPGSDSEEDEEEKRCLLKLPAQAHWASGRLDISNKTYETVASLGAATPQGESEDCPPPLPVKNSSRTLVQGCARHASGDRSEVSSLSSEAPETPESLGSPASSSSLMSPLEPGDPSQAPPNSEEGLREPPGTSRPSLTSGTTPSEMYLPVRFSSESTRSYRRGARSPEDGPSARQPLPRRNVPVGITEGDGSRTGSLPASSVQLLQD
UniProt Q92747, whole entry, looked up: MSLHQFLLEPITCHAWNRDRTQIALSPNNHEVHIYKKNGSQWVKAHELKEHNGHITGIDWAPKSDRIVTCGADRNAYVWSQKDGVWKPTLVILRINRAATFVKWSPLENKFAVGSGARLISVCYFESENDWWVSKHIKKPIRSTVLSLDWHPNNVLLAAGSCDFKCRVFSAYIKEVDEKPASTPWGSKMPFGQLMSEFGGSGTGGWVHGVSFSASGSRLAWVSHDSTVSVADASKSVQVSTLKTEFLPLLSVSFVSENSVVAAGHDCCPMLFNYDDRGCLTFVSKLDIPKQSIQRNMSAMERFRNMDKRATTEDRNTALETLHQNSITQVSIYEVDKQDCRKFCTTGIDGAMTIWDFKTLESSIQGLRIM
UniProt O43299: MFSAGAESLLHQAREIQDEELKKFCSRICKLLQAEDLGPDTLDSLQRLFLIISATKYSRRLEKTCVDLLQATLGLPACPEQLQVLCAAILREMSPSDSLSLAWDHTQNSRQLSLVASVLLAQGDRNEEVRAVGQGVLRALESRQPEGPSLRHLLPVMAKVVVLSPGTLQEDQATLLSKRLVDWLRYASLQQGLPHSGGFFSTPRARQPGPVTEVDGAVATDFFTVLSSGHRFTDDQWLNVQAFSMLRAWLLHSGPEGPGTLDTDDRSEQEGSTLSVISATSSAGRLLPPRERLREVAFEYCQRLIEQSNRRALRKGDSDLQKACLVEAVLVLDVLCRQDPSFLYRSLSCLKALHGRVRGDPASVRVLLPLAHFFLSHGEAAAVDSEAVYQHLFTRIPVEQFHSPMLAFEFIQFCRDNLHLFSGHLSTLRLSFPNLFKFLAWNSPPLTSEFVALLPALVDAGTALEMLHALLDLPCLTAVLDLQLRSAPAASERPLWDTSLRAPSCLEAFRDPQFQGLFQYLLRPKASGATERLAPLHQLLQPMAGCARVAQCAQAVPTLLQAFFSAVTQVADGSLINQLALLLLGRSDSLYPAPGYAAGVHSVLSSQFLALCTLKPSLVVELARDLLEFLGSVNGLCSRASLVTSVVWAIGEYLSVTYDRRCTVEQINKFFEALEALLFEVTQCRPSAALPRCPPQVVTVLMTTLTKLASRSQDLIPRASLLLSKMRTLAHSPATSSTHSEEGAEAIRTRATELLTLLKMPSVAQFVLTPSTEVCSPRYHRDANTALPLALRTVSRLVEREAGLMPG
UniProt P78540: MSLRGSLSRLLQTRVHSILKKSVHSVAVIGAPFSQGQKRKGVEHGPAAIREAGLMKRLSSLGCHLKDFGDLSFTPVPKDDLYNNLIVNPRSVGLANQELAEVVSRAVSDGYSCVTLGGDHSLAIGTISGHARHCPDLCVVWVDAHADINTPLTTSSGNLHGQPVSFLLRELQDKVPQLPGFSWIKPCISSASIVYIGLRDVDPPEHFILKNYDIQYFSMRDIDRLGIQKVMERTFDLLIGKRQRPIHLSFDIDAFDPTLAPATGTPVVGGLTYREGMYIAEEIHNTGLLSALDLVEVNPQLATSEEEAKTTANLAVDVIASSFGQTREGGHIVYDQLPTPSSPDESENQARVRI
UniProt O43182: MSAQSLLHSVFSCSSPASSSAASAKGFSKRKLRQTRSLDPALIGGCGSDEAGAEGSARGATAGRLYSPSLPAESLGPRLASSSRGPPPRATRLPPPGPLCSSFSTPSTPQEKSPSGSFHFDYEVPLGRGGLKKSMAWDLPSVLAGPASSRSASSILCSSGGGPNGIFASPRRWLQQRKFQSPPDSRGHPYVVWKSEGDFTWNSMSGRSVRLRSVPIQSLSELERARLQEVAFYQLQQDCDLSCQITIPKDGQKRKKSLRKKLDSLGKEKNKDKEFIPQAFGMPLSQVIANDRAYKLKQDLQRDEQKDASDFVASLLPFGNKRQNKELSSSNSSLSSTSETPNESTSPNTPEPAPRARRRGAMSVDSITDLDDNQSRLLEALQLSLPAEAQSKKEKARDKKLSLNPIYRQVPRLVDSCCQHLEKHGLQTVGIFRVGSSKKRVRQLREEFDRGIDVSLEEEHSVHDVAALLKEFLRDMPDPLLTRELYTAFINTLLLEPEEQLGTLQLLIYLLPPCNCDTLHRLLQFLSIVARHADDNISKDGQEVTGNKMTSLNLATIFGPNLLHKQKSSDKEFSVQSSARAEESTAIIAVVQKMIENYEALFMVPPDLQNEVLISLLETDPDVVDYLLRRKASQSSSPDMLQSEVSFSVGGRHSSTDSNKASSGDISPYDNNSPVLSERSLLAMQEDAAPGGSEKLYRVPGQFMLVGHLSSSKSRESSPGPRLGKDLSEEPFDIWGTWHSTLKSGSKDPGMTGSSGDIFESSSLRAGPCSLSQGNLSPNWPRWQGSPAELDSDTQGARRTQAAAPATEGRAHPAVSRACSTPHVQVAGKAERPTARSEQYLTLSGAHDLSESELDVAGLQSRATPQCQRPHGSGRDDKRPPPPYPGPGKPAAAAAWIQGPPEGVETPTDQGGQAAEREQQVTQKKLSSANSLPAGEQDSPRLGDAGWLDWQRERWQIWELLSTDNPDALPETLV
UniProt O75915: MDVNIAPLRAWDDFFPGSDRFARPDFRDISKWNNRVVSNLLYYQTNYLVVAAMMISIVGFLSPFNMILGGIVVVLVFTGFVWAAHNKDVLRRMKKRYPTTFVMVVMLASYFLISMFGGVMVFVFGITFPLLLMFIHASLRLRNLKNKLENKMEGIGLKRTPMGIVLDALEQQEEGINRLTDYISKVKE
UniProt Q92619: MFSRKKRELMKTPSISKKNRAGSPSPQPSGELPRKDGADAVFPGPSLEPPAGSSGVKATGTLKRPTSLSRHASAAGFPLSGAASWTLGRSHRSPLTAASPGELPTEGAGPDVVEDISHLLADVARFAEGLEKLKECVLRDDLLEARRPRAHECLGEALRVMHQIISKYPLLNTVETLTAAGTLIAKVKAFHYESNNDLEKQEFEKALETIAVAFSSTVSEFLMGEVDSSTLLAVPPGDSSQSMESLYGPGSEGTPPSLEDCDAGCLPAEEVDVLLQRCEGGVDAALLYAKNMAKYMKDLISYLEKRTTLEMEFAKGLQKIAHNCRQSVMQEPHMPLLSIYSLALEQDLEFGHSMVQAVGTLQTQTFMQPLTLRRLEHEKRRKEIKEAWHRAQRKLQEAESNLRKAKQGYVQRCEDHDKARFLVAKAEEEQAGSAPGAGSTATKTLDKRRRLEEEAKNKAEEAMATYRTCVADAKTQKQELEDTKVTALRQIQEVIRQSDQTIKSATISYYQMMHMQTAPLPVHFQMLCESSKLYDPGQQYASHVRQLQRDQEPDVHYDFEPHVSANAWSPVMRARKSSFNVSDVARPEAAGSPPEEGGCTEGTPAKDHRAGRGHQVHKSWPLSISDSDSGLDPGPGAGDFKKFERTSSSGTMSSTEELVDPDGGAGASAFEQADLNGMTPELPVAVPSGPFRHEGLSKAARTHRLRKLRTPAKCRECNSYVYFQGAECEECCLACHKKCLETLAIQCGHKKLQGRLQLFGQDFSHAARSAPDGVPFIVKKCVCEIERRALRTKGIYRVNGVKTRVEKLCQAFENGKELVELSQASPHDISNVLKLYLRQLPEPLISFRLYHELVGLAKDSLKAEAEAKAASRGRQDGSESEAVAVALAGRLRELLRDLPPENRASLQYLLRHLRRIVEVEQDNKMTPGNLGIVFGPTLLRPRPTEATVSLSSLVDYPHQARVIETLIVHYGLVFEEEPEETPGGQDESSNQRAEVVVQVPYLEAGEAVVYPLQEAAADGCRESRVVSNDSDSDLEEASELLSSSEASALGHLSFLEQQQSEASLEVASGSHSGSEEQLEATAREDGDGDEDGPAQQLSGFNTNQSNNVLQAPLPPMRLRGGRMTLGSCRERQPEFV
UniProt Q13510, whole entry, looked up: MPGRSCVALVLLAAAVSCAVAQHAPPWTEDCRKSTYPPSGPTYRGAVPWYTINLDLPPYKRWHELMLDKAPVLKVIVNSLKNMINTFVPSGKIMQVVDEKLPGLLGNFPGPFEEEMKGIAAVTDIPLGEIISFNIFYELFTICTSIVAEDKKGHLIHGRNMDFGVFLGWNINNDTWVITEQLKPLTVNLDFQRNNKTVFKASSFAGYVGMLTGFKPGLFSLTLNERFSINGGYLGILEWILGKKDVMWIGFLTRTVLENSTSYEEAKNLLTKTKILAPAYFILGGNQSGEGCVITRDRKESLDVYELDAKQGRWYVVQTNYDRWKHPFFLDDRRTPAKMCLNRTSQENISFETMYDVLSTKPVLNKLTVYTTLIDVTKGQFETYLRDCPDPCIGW

How the values were obtained:
Assay in all cases: log2 fold change, soluble protein after heating vs DMSO (PISA); higher = thermal stabilisation; K562 lysate, 10 uM; active = over 0.2 and 3.5 SD of the protein, either way, in both replicates (recomputed)
alvocidib = compound: CN1CC[C@H](c2c(O)cc(O)c3c(=O)cc(-c4ccccc4Cl)oc23)[C@H](O)C1 [alvocidib]
In short: (§1)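 Values give the log-two fold change in thermal stability against solvent controls, from duplicates. Crude K562 extract at 1 mg/mL protein, made by dounce homogenisation in PBS pH 7.4 with 1 mM MgCl2, was treated with 10 μM compound for 30 min. After 3 min heating across 48°C-58°C, aliquots were pooled, adjusted to 0.5% NP-40 at 4°C and centrifuged at 21,000xg for 90 min. The supernatant was measured by TMTpro 16plex LC-MS/MS with channel sums equalised.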

Tubastatin A = compound: CN1CCc2c(c3ccccc3n2Cc2ccc(C(=O)NO)cc2)C1 [Tubastatin A]
In short: as §1

[1] = compound: CNC(=O)C1=CC=CC=C1NC2=NC(=NC=C2Cl)NC3=C(C=C(C=C3)N4CCOCC4)OC
In short: as §1

defactinib = compound: CNC(=O)c1ccc(Nc2ncc(C(F)(F)F)c(NCc3nccnc3N(C)S(C)(=O)=O)n2)cc1 [defactinib]
In short: as §1

[2] = compound: CNc1nc(-c2ccc3c(N)n[nH]c3c2)cc(N2C[C@@H](C(=O)NC3CCCCC3)CC[C@H]2C)n1
In short: as §1

encorafenib = compound: COC(=O)N[C@@H](C)CNc1nccc(-c2cn(C(C)C)nc2-c2cc(Cl)cc(NS(C)(=O)=O)c2F)n1 [encorafenib]
In short: as §1

[3] = compound: COC(=O)[C@H](CCSC)NC(=O)C1=C(C=C(C=C1)NC[C@H](CS)N)C2=CC=CC=C2
In short: as §1

alisertib = compound: COc1cc(Nc2ncc3c(n2)-c2ccc(Cl)cc2C(c2c(F)cccc2OC)=NC3)ccc1C(=O)O [alisertib]
In short: as §1

[4] = compound: COc1cc2nc(-c3cc(F)ccc3O)nc(N[C@@H]3CNC[C@H]3C(C)(C)O)c2cc1OC
In short: as §1

gefitinib = compound: COc1cc2ncnc(Nc3ccc(F)c(Cl)c3)c2cc1OCCCN1CCOCC1 [gefitinib]
In short: as §1

lapatinib = compound: CS(=O)(=O)CCNCc1ccc(-c2ccc3ncnc(Nc4ccc(OCc5cccc(F)c5)c(Cl)c4)c3c2)o1 [lapatinib]
In short: as §1

pictilisib = compound: CS(=O)(=O)N1CCN(Cc2cc3nc(-c4cccc5[nH]ncc45)nc(N4CCOCC4)c3s2)CC1 [pictilisib]
In short: as §1

crizotinib = compound: C[C@@H](Oc1cc(-c2cnn(C3CCNCC3)c2)cnc1N)c1c(Cl)ccc(F)c1Cl [crizotinib]
In short: as §1

[5] = compound: C[C@H](C1=CC=C(C=C1)C(=O)NC2=C3C=CNC3=NC=C2)N
In short: as §1

duvelisib = compound: C[C@H](Nc1ncnc2nc[nH]c12)c1cc2cccc(Cl)c2c(=O)n1-c1ccccc1 [duvelisib]
In short: as §1

gandotinib = compound: Cc1cc(Nc2cc(CN3CCOCC3)c3nc(C)c(Cc4ccc(Cl)cc4F)n3n2)n[nH]1 [gandotinib]
In short: as §1

tozasertib = compound: Cc1cc(Nc2cc(N3CCN(C)CC3)nc(Sc3ccc(NC(=O)C4CC4)cc3)n2)n[nH]1 [tozasertib]
In short: as §1

doramapimod = compound: Cc1ccc(-n2nc(C(C)(C)C)cc2NC(=O)Nc2ccc(OCCN3CCOCC3)c3ccccc23)cc1 [doramapimod]
In short: as §1

bafetinib = compound: Cc1ccc(NC(=O)c2ccc(CN3CC[C@H](N(C)C)C3)c(C(F)(F)F)c2)cc1Nc1nccc(-c2cncnc2)n1 [bafetinib]
In short: as §1

[6] = compound: Cc1cccc(CC(=O)N2CCc3c2ccc(-c2cn(C)c4ncnc(N)c24)c3F)n1
In short: as §1

| Target | log2 fold change (alvocidib) | log2 fold change (Tubastatin A) | log2 fold change [1] | log2 fold change (defactinib) | log2 fold change [2] | log2 fold change (encorafenib) | log2 fold change [3] | log2 fold change (alisertib) | log2 fold change [4] | log2 fold change (gefitinib) | log2 fold change (lapatinib) | log2 fold change (pictilisib) | log2 fold change (crizotinib) | log2 fold change [5] | log2 fold change (duvelisib) | log2 fold change (gandotinib) | log2 fold change (tozasertib) | log2 fold change (doramapimod) | log2 fold change (bafetinib) | log2 fold change [6] |
| --- | --- | --- | --- | --- | --- | --- | --- | --- | --- | --- | --- | --- | --- | --- | --- | --- | --- | --- | --- | --- |
| ARL8A (UniProt Q96BM9) | inactive: 0.082 | inactive: 0.043 | inactive: 0.06 | inactive: 0.019 | inactive: 0.204 | inactive: -0.048 | inactive: -0.03 | inactive: -0.186 | inactive: 0.027 | inactive: 0.013 | inactive: -0.11 | inactive: 0.038 | inactive: 0.091 | active: 0.426 | inactive: -0.078 | inactive: 0 | inactive: -0.063 | inactive: -0.005 | inactive: -0.016 | inactive: -0.088 |
| APOOL (UniProt Q6UXV4) | inactive: -0.014 | inactive: 0.021 | inactive: 0.028 | inactive: -0.001 | inactive: 0.035 | inactive: -0.003 | inactive: 0.011 | inactive: 0.024 | inactive: 0.014 | inactive: -0.046 | inactive: 0.001 | inactive: 0.031 | inactive: 0.005 | inactive: -0.053 | inactive: 0.011 | inactive: 0.082 | inactive: -0.026 | inactive: -0.018 | inactive: 0.006 | inactive: 0.032 |
| APPL1 (UniProt Q9UKG1) | inactive: 0.024 | inactive: 0.029 | inactive: 0.017 | inactive: -0.029 | inactive: 0.077 | inactive: -0.056 | inactive: 0.052 | inactive: 0.011 | inactive: 0.021 | inactive: -0.02 | inactive: -0.032 | inactive: -0.011 | inactive: -0.054 | inactive: 0.081 | inactive: 0.029 | inactive: -0.037 | inactive: -0.024 | inactive: 0.052 | inactive: -0.029 | inactive: -0.036 |
| ARL6IP1 (UniProt Q15041) | inactive: -0.013 | inactive: 0.009 | inactive: -0.073 | inactive: -0.046 | inactive: 0.061 | inactive: 0.013 | inactive: 0.023 | inactive: -0.021 | inactive: 0.029 | inactive: 0.004 | inactive: -0.031 | inactive: 0.177 | inactive: 0.034 | inactive: 0.032 | inactive: 0.042 | inactive: 0.024 | inactive: 0.003 | inactive: 0.004 | inactive: 0.254 | inactive: -0.001 |
| ASAP3 (UniProt Q8TDY4) | inactive: -0.083 | inactive: -0.09 | inactive: 0.076 | inactive: 0.011 | inactive: -0.037 | inactive: 0.038 | inactive: 0.175 | inactive: -0.038 | inactive: 0.018 | inactive: 0.012 | inactive: -0.006 | inactive: -0.141 | inactive: 0.014 | inactive: 0.017 | inactive: -0.064 | inactive: -0.032 | inactive: -0.034 | inactive: -0.04 | inactive: -0.11 | inactive: 0.048 |
| ARPC1A (UniProt Q92747) | inactive: -0.029 | inactive: 0.016 | inactive: 0.008 | inactive: 0.018 | inactive: -0.01 | inactive: -0.004 | inactive: -0.066 | inactive: -0.013 | inactive: 0.004 | inactive: -0.067 | inactive: -0.003 | inactive: -0.032 | inactive: 0.044 | inactive: -0.108 | inactive: 0.02 | inactive: 0.047 | inactive: -0.062 | inactive: 0.005 | inactive: -0.056 | inactive: 0.02 |
| AP5Z1 (UniProt O43299) | inactive: -0.015 | inactive: -0.032 | inactive: 0.037 | inactive: -0.065 | inactive: 0.043 | inactive: -0.012 | inactive: 0.014 | inactive: -0.02 | inactive: 0.077 | inactive: 0.005 | inactive: -0.097 | inactive: -0.037 | inactive: -0.039 | inactive: -0.104 | inactive: 0.015 | inactive: 0.185 | inactive: -0.022 | inactive: -0.004 | inactive: 0.031 | inactive: 0.186 |
| ARG2 (UniProt P78540) | inactive: 0.009 | inactive: 0.099 | inactive: -0.025 | inactive: -0.081 | inactive: 0.047 | inactive: -0.022 | inactive: -0.052 | inactive: 0.037 | inactive: 0.009 | inactive: 0.064 | inactive: 0.004 | inactive: -0.056 | inactive: -0.031 | inactive: -0.012 | inactive: 0.069 | inactive: 0.044 | inactive: -0.01 | inactive: -0.006 | inactive: -0.029 | inactive: -0.014 |
| ARHGAP6 (UniProt O43182) | inactive: 0.003 | inactive: -0.201 | inactive: 0.129 | inactive: 0.012 | inactive: -0.017 | inactive: 0.06 | inactive: 0.063 | inactive: 0.017 | inactive: -0.012 | inactive: -0.069 | inactive: 0.006 | inactive: 0.012 | inactive: -0.038 | inactive: 0.106 | inactive: 0.001 | inactive: -0.097 | inactive: 0.004 | inactive: -0.003 | inactive: -0.055 | inactive: -0.022 |
| ARCN1 (UniProt P48444) | inactive: -0.001 | inactive: 0.038 | inactive: -0.019 | inactive: -0.007 | inactive: -0.02 | inactive: -0.002 | inactive: 0.013 | inactive: 0.018 | inactive: -0.005 | inactive: 0.003 | inactive: -0.001 | inactive: 0.004 | inactive: 0.004 | inactive: -0.001 | inactive: 0.015 | inactive: -0.02 | inactive: -0.004 | inactive: 0.012 | inactive: -0.004 | inactive: 0.001 |
| ARL6IP5 (UniProt O75915) | inactive: 0.097 | inactive: 0.003 | inactive: -0.035 | inactive: 0.022 | inactive: -0.034 | inactive: 0.027 | inactive: 0.015 | inactive: 0.1 | inactive: -0.008 | inactive: -0.014 | inactive: -0.069 | inactive: -0.038 | inactive: 0.059 | inactive: 0.132 | inactive: 0.021 | inactive: -0.17 | inactive: 0.023 | inactive: -0.027 | inactive: 0.027 | inactive: -0.164 |
| ARHGAP4 isoform 2 (UniProt P98171) | inactive: 0.016 | inactive: -0.069 | inactive: -0.004 | inactive: -0.071 | inactive: -0.031 | inactive: 0.035 | inactive: 0.089 | inactive: 0 | inactive: -0.004 | inactive: -0.023 | inactive: -0.007 | inactive: -0.03 | inactive: -0.025 | inactive: 0.003 | inactive: 0.017 | inactive: -0.044 | inactive: -0.044 | inactive: -0.011 | inactive: 0.003 | inactive: 0.037 |
| ARHGAP45 isoform 2 (UniProt Q92619) | inactive: -0.015 | inactive: -0.017 | inactive: -0.004 | inactive: -0.028 | inactive: -0.079 | inactive: 0.02 | inactive: -0.05 | inactive: -0.021 | inactive: -0.001 | inactive: 0.001 | inactive: 0.058 | inactive: -0.02 | inactive: -0.001 | inactive: -0.001 | inactive: 0.003 | inactive: 0.048 | inactive: 0.022 | inactive: -0.009 | inactive: -0.046 | inactive: -0.004 |
| ARHGAP25 isoform 4 (UniProt P42331) | inactive: -0.032 | inactive: -0.122 | inactive: 0.04 | inactive: 0.055 | inactive: 0.054 | inactive: -0.009 | inactive: 0.038 | inactive: 0.012 | inactive: -0.004 | inactive: -0.009 | inactive: 0.011 | inactive: -0.024 | inactive: -0.053 | inactive: -0.011 | inactive: 0.008 | inactive: -0.024 | inactive: -0.006 | inactive: -0.005 | inactive: -0.075 | inactive: 0.081 |
| ARPC1B (UniProt O15143) | inactive: 0.02 | inactive: 0.018 | inactive: -0.014 | inactive: 0.002 | inactive: -0.035 | inactive: -0.002 | inactive: -0.01 | inactive: -0.061 | inactive: -0.012 | inactive: -0.071 | inactive: 0.036 | inactive: 0.042 | inactive: 0.02 | inactive: 0.033 | inactive: 0.031 | inactive: -0.017 | inactive: -0.001 | inactive: 0.004 | inactive: 0.068 | inactive: -0.027 |
| ASAH1 isoform 2 (UniProt Q13510) | inactive: 0.044 | inactive: -0.015 | inactive: 0.006 | inactive: 0.028 | inactive: -0.027 | inactive: 0.082 | inactive: -0.032 | inactive: -0.007 | inactive: 0.009 | inactive: -0.074 | inactive: 0.022 | inactive: 0.073 | inactive: -0.02 | inactive: -0.125 | inactive: 0.016 | inactive: 0.156 | inactive: -0.095 | inactive: -0.032 | inactive: -0.045 | inactive: -0.026 |

An excerpt of these results, with tabs.
Target	log2 fold change (alvocidib)	log2 fold change (Tubastatin A)	log2 fold change [1]	log2 fold change (defactinib)	log2 fold change [2]	log2 fold change (encorafenib)	log2 fold change [3]	log2 fold change (alisertib)	log2 fold change [4]	log2 fold change (gefitinib)	log2 fold change (lapatinib)	log2 fold change (pictilisib)	log2 fold change (crizotinib)	log2 fold change [5]	log2 fold change (duvelisib)	log2 fold change (gandotinib)	log2 fold change (tozasertib)	log2 fold change (doramapimod)	log2 fold change (bafetinib)	log2 fold change [6]
APPL1 (UniProt Q9UKG1)	inactive: 0.024	inactive: 0.029	inactive: 0.017	inactive: -0.029	inactive: 0.077	inactive: -0.056	inactive: 0.052	inactive: 0.011	inactive: 0.021	inactive: -0.02	inactive: -0.032	inactive: -0.011	inactive: -0.054	inactive: 0.081	inactive: 0.029	inactive: -0.037	inactive: -0.024	inactive: 0.052	inactive: -0.029	inactive: -0.036
ARL6IP1 (UniProt Q15041)	inactive: -0.013	inactive: 0.009	inactive: -0.073	inactive: -0.046	inactive: 0.061	inactive: 0.013	inactive: 0.023	inactive: -0.021	inactive: 0.029	inactive: 0.004	inactive: -0.031	inactive: 0.177	inactive: 0.034	inactive: 0.032	inactive: 0.042	inactive: 0.024	inactive: 0.003	inactive: 0.004	inactive: 0.254	inactive: -0.001
ARPC1B (UniProt O15143)	inactive: 0.02	inactive: 0.018	inactive: -0.014	inactive: 0.002	inactive: -0.035	inactive: -0.002	inactive: -0.01	inactive: -0.061	inactive: -0.012	inactive: -0.071	inactive: 0.036	inactive: 0.042	inactive: 0.02	inactive: 0.033	inactive: 0.031	inactive: -0.017	inactive: -0.001	inactive: 0.004	inactive: 0.068	inactive: -0.027
